Data as given in publication PMC11055860.
No constants are given. Whether binding was seen depends on the method and setting. In cells and extracts the contact can be indirect. Some binding calls cover weakened binding; strength is not graded here.

Protein sequences, listed by entry. Tags and fused reporters are not part of them. Residues count along the entry.
UniProt Q99523, residues 78-831: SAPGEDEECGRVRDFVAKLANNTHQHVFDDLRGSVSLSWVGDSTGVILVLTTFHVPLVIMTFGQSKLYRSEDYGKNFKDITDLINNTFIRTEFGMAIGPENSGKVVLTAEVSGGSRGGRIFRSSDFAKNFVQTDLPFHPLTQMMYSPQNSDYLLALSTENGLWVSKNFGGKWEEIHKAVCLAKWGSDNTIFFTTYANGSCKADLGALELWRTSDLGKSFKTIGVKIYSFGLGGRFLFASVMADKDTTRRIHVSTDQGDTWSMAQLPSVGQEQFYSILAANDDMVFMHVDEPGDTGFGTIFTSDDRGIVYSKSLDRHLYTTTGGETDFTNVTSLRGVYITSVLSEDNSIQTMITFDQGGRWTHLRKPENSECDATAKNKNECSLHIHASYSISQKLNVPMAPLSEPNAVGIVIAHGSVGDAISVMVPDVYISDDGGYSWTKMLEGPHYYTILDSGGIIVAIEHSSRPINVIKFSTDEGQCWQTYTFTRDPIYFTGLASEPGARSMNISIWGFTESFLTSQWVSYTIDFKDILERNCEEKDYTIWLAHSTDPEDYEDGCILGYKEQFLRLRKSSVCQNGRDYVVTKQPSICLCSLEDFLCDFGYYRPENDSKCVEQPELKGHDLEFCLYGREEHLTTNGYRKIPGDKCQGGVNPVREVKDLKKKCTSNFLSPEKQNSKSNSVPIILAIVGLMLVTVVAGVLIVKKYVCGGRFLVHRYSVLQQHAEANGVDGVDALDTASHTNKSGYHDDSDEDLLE

Molecular target: T1, LIF receptor (human (endogenous in LX2)) (UniProt P42702)
T1 sequence: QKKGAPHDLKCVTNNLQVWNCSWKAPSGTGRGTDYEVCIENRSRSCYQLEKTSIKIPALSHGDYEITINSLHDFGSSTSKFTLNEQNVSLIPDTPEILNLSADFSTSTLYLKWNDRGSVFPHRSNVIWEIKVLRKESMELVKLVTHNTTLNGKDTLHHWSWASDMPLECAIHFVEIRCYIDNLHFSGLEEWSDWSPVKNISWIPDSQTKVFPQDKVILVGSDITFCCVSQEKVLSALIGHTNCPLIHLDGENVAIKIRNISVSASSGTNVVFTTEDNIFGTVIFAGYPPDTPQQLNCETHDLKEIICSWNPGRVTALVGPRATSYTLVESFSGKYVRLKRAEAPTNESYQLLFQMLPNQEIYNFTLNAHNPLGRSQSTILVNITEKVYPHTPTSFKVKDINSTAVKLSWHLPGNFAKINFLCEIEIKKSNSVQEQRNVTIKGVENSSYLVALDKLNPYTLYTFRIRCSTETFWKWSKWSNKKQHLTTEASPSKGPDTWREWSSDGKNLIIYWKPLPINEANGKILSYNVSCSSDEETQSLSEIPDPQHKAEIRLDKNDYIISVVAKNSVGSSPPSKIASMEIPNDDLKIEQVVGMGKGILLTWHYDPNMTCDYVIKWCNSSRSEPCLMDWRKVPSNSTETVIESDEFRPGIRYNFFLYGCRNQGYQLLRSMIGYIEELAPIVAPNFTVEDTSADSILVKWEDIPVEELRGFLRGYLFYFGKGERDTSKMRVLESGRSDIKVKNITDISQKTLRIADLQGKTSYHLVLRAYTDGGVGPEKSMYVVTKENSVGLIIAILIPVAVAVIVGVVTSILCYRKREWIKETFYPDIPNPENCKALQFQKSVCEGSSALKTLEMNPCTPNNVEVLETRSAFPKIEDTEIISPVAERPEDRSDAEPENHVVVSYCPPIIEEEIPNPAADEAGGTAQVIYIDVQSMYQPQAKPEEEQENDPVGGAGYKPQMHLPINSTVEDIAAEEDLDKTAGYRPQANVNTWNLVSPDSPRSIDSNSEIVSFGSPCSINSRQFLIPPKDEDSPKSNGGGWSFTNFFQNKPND
Test: proximity ligation; Duolink PLA in LX2 cells (pre-treated with calcipotriol), fixed in 4% paraformaldehyde and permeabilised; primary antibodies to LIFR and sortilin; signal only when the two are within 40 nm; cells in DMEM or stimulated with LIF, FL-PGRN, LIF + FL-PGRN, Trunc-PGRN or LIF + Trunc-PGRN

binding: binds
Substance: Sortilin (from UniProt Q99523 78-831) (receptor)
